According to PubChem BioAssay AID2417 (National Center for Advancing Translational Sciences (NCATS), 2010):
In all, about 140,000 compounds went through this assay and about 4,300 (3.1%) were called active. The shares of active, inactive and inconclusive entries below differ from those in the screen.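 How the source made its calls: active means readout at or below -70, meaning at least 70% loss of cells showing the perinucleolar compartment, a nuclear body marking cancer cells; inconclusive means readout between -30 and a set limit; inactive means the rest.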

Assay: High Content Assay for Compounds that inhibit the Assembly of the Perinucleolar Compartment;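 further: plate controls were DMSO wells for no effect and camptothecin positive control wells for full effect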
Settings: PC3M PTB-GFP, PNC prevalence imaging, 16 h; at 10 µM; hits give low values
Method in brief: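 Compounds are pinned in duplicate onto adhered PC3M cells stably expressing GFP-tagged PTB and incubated 16 h at 37 C. Cells are then fixed, nuclei stained with Hoechst, and PNC-positive cells counted.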

SMILES | activity change (PNC), negative = inhibition
CS(=O)(=O)N1CCN(CC2CC3C=CC2C3)CC1 (stereo unspecified) | active: -89.4%
O=C1CC(NCc2ccncc2)C(=O)N1c1ccccc1 (stereo unspecified) | inactive: 31%
CCOC(=S)SCC(=O)Nc1nc(-c2ccc(Br)cc2)cs1 | inconclusive: -60%
Cc1nc2ccc(S(=O)(=O)NC(CC(C)C)C(=O)O)cc2s1 (stereo unspecified) | inconclusive: -31.4%
COCCCn1c(=O)c2ccccc2c2ccccc2c1=O | inconclusive: -32.6%
Cc1cc(C(=O)CSc2nnc(C3COc4ccccc4O3)n2C)c(C)n1-c1ccc(F)cc1 (stereo unspecified) | inactive: 11.9%
Cc1nc2sc3c(c2c2nnc(SCC(=O)NCc4ccco4)n12)CCCC3 | inactive: 30%
COc1ccc(Cn2ccnc2)cc1Br | inconclusive: -63.9%
CCN(CC)S(=O)(=O)c1ccc(C2=NOC3(C2)N(C)c2ccccc2C3(C)C)cc1 (stereo unspecified) | active: -106%
O=C(CSc1nnc(CNc2ccc(F)cc2)n1CC1CCCO1)Nc1ccccc1 (stereo unspecified) | inconclusive: -33.7%
CCOC(=O)C1CCN(C(c2cccnc2)c2c(NC(=O)c3ccco3)sc(C)c2C)CC1 (stereo unspecified) | inconclusive: -44%
O=[N+]([O-])c1ccc(N/N=C2/CCCCC2c2ccccn2)cc1 (stereo unspecified) | inactive: -27.9%
S=c1nc(-c2ccccc2Cl)n(Cc2cccnc2)c2c1CCCC2 | active: -88.3%
Cc1ccc(Nc2nnc(SCC(=O)c3cc4ccccc4o3)s2)cc1C | inconclusive: -38.4%
COc1ccccc1/C=C(\NC(=O)c1ccc(OC)c(OC)c1)C(=O)Nc1cccc([N+](=O)[O-])c1 | inactive: 90.3%
CSc1ccc(/C=N/n2nnnc2N)cc1 | inconclusive: -61.4%
CC(C)NC(=O)CCS(=O)(=O)c1cccc2nonc12 | inactive: 12.7%
Cc1ccc(NC(=O)/C=C\C(=O)O)c([N+](=O)[O-])c1 | inactive: -5.52%
C=CCn1c(SCC(=O)c2ccc(OC)cc2)nnc1C(C)NC(=O)c1cccs1 (stereo unspecified) | inactive: 66.1%
Cc1[nH]n(-c2ccc([N+](=O)[O-])cc2)c(=O)c1C=NCCN1CCN(C(=O)c2ccc(Br)cc2)CC1 | inconclusive: -37.9%
CC1CC(C)(C)CC2(C1)NC(=O)N(CC(=O)NCCc1c[nH]c3ccccc13)C2=O (stereo unspecified) | inconclusive: -55.5%
COC(=O)c1[nH]c2cccc(OC)c2c1NC(=O)CCN1CCN(c2cccc(Cl)c2)CC1 | inactive: 3.64%
COc1ccc(NC(=O)c2cccc(Cn3cc(Br)cn3)c2)cn1 | inconclusive: -42.4%

SMILES | activity change (PNC), negative = inhibition
CCOC(=O)c1sc(NC(=O)Nc2ccccc2F)nc1C | inconclusive: -30.8%
O=C(C1=C(O)C(=O)N(CCCN2CCOCC2)C1c1ccccn1)c1cc2ccccc2o1 (stereo unspecified) | inconclusive: -40%
COc1ccc(-c2cc(-c3cccs3)c(C#N)c(SCC(=O)NCc3ccco3)n2)cc1 | inconclusive: -56.1%
COc1cc(Br)c(CCNC(=O)Cc2ccccc2)cc1OC | inconclusive: -56.9%
Cc1cc(NS(=O)(=O)c2ccccc2)n(-c2ccccc2)n1 | inconclusive: -36.6%
Oc1ccccc1/C=N/Nc1cccc2cccnc12 | inactive: 61.9%
CCCCCCC(=O)Nc1nc(C)c(-c2csc(Nc3cc(OC)ccc3OC)n2)s1 | inactive: -5.78%
CCCCSc1nnc(-c2ccccc2N)c(=O)[nH]1 | inconclusive: -51.2%
CCN(CC)S(=O)(=O)c1ccc(C(=O)Oc2ccc3c(c2)OCO3)cc1 | inconclusive: -47.3%
CC(C)CSc1nc2c(=O)[nH][nH]c(=O)c2n1Cc1ccccc1 | inactive: -5.47%
Cn1c(NCCCO)nc2ccccc21 | inconclusive: -33.5%
CC1(C)Cc2ccccc2-c2nnc(-c3cccnc3)n21 | inconclusive: -33.4%
COc1cccc(-c2cc(C(=O)Nc3cnn(Cc4ccc(F)cc4)c3)no2)c1 | inconclusive: -54.6%
Cn1cccc1C1(C(F)(F)F)NCCNC1=O (stereo unspecified) | inconclusive: -64.5%
CCSc1nc2c(c(=O)n1Cc1ccccc1)SC(C)C2 (stereo unspecified) | inconclusive: -55.9%
CC1=C(C(=O)Nc2ccccc2F)C(c2ccsc2)C2=C(CC(C)(C)CC2=O)N1 (stereo unspecified) | inactive: -12.5%
Cc1ccc(NC(CNS(=O)(=O)c2ccc(Cl)cc2)c2ccccc2)cc1 (stereo unspecified) | inactive: 6.53%
O=S(=O)(c1ccc(S(=O)(=O)N2CCN(C/C=C/c3ccccc3)CC2)cc1)N1CCCC1 | inconclusive: -55.1%
S=c1nc(C2CC2)[nH]c2ccccc12 | inactive: -11.4%
CC1CCN(CC(=O)N2c3ccccc3CCc3ccccc32)CC1 | inconclusive: -31.1%
Cc1ccc(CNc2ncc(-c3ccc4c(c3)OCO4)n2C)cc1 | inconclusive: -30.1%
CC1CCCCN1C(=O)CSc1nc2cc3c(cc2c(=O)n1Cc1ccc2c(c1)OCO2)OCO3 (stereo unspecified) | active: -86.7%
Cc1ccccc1/C=N/NC(=O)Cn1cnc([N+](=O)[O-])n1 | inactive: -6.82%

Another view of part of the listing above.

| SMILES | activity change (PNC), negative = inhibition |
| --- | --- |
| COc1cc(Br)c(CCNC(=O)Cc2ccccc2)cc1OC | inconclusive: -56.9% |
| Cc1cc(NS(=O)(=O)c2ccccc2)n(-c2ccccc2)n1 | inconclusive: -36.6% |
| Oc1ccccc1/C=N/Nc1cccc2cccnc12 | inactive: 61.9% |
| CCCCCCC(=O)Nc1nc(C)c(-c2csc(Nc3cc(OC)ccc3OC)n2)s1 | inactive: -5.78% |
| CCCCSc1nnc(-c2ccccc2N)c(=O)[nH]1 | inconclusive: -51.2% |
| CCN(CC)S(=O)(=O)c1ccc(C(=O)Oc2ccc3c(c2)OCO3)cc1 | inconclusive: -47.3% |
| CC(C)CSc1nc2c(=O)[nH][nH]c(=O)c2n1Cc1ccccc1 | inactive: -5.47% |
| Cn1c(NCCCO)nc2ccccc21 | inconclusive: -33.5% |
| CC1(C)Cc2ccccc2-c2nnc(-c3cccnc3)n21 | inconclusive: -33.4% |
| COc1cccc(-c2cc(C(=O)Nc3cnn(Cc4ccc(F)cc4)c3)no2)c1 | inconclusive: -54.6% |
| Cn1cccc1C1(C(F)(F)F)NCCNC1=O (stereo unspecified) | inconclusive: -64.5% |
| CCSc1nc2c(c(=O)n1Cc1ccccc1)SC(C)C2 (stereo unspecified) | inconclusive: -55.9% |
| CC1=C(C(=O)Nc2ccccc2F)C(c2ccsc2)C2=C(CC(C)(C)CC2=O)N1 (stereo unspecified) | inactive: -12.5% |
| Cc1ccc(NC(CNS(=O)(=O)c2ccc(Cl)cc2)c2ccccc2)cc1 (stereo unspecified) | inactive: 6.53% |
| O=S(=O)(c1ccc(S(=O)(=O)N2CCN(C/C=C/c3ccccc3)CC2)cc1)N1CCCC1 | inconclusive: -55.1% |
| S=c1nc(C2CC2)[nH]c2ccccc12 | inactive: -11.4% |
| CC1CCN(CC(=O)N2c3ccccc3CCc3ccccc32)CC1 | inconclusive: -31.1% |
| Cc1ccc(CNc2ncc(-c3ccc4c(c3)OCO4)n2C)cc1 | inconclusive: -30.1% |
| CC1CCCCN1C(=O)CSc1nc2cc3c(cc2c(=O)n1Cc1ccc2c(c1)OCO2)OCO3 (stereo unspecified) | active: -86.7% |

Next part

SMILES | activity change (PNC), negative = inhibition
Cc1ccc(/C=C/C(=O)Nc2ccc([N+](=O)[O-])cc2)o1 | inactive: 10.7%
Cc1cc(C)nc(Nc2nc(=O)c3ccccc3s2)n1 | inconclusive: -45.7%
O=C(Oc1ccc2c(c1)OCO2)c1cc2c(s1)CCC2 | inconclusive: -32.5%
COc1ccc(N(CC(=O)NC2CCCC2)C(=O)c2csnn2)cc1 | inconclusive: -57.8%
CCOC(=O)N1CCN(c2c(NCCCN(CC)CC)c(=O)c2=O)CC1 | inconclusive: -60.5%
CC(C)c1ccc(N(C(=O)c2cc3ccccc3oc2=O)C2C=CS(=O)(=O)C2)cc1 (stereo unspecified) | inactive: 2.37%
Cc1nn(-c2ccccc2)c2sc(C(=O)N3CCCCC3)cc12 | inactive: -15.8%
COc1ccccc1-n1c(CCn2nc(C)c(Br)c2C)n[nH]c1=S | inconclusive: -56.5%
CCOC(=O)CSc1nc2ccccc2n1CC(=O)NC(C)(C)C | inconclusive: -69.9%
O=C(COn1nnc2ccc(C(F)(F)F)cc21)Nc1c(Cl)cccc1Cl | inconclusive: -50.6%
COC(=O)c1c(-c2ccc(C(C)(C)C)cc2)csc1NC(=O)C1C2CCC(O2)C1C(=O)O (stereo unspecified) | active: -98.3%
Cc1ccc(-n2c(C)cc(C3N=C(N)Nc4nc5ccccc5n43)c2C)c(C)c1 (stereo unspecified) | inactive: 14.4%
CC1CCCC(C)N1C(=O)CSc1nnc(CSc2ncccn2)n1C (stereo unspecified) | active: -100%
COCCN1C(=O)C(=O)/C(=C(/O)c2ccc3c(c2)OCCO3)C1c1ccc(C(=O)OC)cc1 (stereo unspecified) | inactive: 12.1%
O=C(Nc1nc(-c2ccc(Cl)cc2)cs1)c1cccnc1 | inconclusive: -59.2%
CN=Cc1cc(-c2ccccc2)sc1O | inconclusive: -46.5%
Cc1ccc(S(=O)(=O)N2CCC(C(=O)NCCCN3CCCCCC3)CC2)cc1 | inconclusive: -66.9%
O=c1cc(-c2ccccc2)[nH]c2ccccc12 | inconclusive: -64.7%
COc1cc(/C=N/NC(=O)Cc2cccs2)c([N+](=O)[O-])cc1OC | inactive: 55.2%
Cc1ccc(-c2nnc3n2N=C(c2ccccc2)CS3)cc1 | inactive: 48.2%
CCCCCCCC(=O)Nc1ccc(C(=O)N/N=C/c2cccc([N+](=O)[O-])c2)cc1 | inconclusive: -32.7%
CCOC(=O)COc1ccc(C(=O)c2ccccc2)c(O)c1 | inactive: -29.6%
N#CCC(=O)N1CCn2c1nc1ccccc12 | inconclusive: -30.1%

SMILES | activity change (PNC), negative = inhibition
COc1ccc(CNC(=O)C2CC(c3ccc(OC)cc3)=NO2)cc1 (stereo unspecified) | inconclusive: -30.5%
CCN1CCN(/C=N/c2nc(C)cs2)CC1 | inconclusive: -47.9%
Cc1ccc2[nH]c3c(NCc4ccco4)ncnc3c2c1 | inactive: -14.3%
COc1ccc(S(=O)(=O)NCCCCNS(=O)(=O)c2ccc(OC)cc2)cc1 | inactive: 8.52%
Cc1cnc(C(=O)Nc2ccc(C(=O)N(C)C3CCCCC3)cc2)cn1 | inactive: -21%
CCOc1cc(C(=O)Nc2ccc(F)cc2)cc(Br)c1OC | inconclusive: -56.3%
COc1cc(OC)cc(OCC(O)Cn2cnc3cc(C)c(C)cc32)c1 (stereo unspecified) | inconclusive: -32.3%
O=C(Nc1ccon1)c1sc2ccccc2c1Cl | inconclusive: -44%
COc1ccc(NC(=O)c2ccc(S(=O)(=O)N3CCOCC3)cc2)c(OC)c1 | inconclusive: -32.8%
Cc1cc2nc(NC3=NCN(Cc4ccc5c(c4)OCO5)CN3)nc(C)c2cc1C | inconclusive: -47.9%
Cc1cc(N2CCOCC2)nc(NCc2ccccc2)n1 | inconclusive: -46.3%
COc1ccccc1NC(=O)C1=C(C)Nc2nnnn2C1c1cccc(C)c1 (stereo unspecified) | inactive: -18.3%
Cc1nn(CCOc2ccccc2)c(=O)n1-c1ccccc1F | inconclusive: -63.6%
O=[N+]([O-])c1ccccc1/C=N/N1CCN(c2ccncc2S(=O)(=O)N2CCCCC2)CC1 | inconclusive: -30.5%
O=C(CC(c1ccco1)S(=O)(=O)c1ccccc1)c1ccc(F)cc1 (stereo unspecified) | inconclusive: -60.6%
CCOC(=O)Cn1nc(-c2ccc(F)cc2)oc1=O | inconclusive: -38.5%
Cc1oc(=O)c(NC(=O)c2cccc(Cl)c2)cc1C(=O)c1ccccc1 | inactive: 39.6%
COc1ccccc1NS(=O)(=O)c1ccc2c(c1)n(C)c(=O)n2C | inactive: 6.81%
COc1ccc(-n2nnnc2Sc2ccc(S(=O)(=O)N3CCOCC3)cn2)cc1 | inactive: 25.4%
Cc1nc2sc(C(c3ccc(Cl)cc3)N3CCN(c4ccccc4F)CC3)c(O)n2n1 (stereo unspecified) | inconclusive: -34.4%
N=C1C=CC=C2C1=NC1(CCCCC1)N2O | inconclusive: -76.8%
CC(C)(C)N/N=C/c1c(O)n(-c2ccc(Cl)cn2)c(=O)c2ccccc12 | inconclusive: -44.8%
